Measurements as given in PMC11729909.
Residue numbers refer to the chain shown, from its start. No constants are given. Whether binding was seen depends on the method and setting. Binding seen in cells or lysates may run through a third protein. Some entries that bind do so weakly or less than the wild type. Tags and fused reporters may be left off the sequences shown.

The chains behind the UniProt entries cited, without tags or fusion partners.
UniProt Q13535: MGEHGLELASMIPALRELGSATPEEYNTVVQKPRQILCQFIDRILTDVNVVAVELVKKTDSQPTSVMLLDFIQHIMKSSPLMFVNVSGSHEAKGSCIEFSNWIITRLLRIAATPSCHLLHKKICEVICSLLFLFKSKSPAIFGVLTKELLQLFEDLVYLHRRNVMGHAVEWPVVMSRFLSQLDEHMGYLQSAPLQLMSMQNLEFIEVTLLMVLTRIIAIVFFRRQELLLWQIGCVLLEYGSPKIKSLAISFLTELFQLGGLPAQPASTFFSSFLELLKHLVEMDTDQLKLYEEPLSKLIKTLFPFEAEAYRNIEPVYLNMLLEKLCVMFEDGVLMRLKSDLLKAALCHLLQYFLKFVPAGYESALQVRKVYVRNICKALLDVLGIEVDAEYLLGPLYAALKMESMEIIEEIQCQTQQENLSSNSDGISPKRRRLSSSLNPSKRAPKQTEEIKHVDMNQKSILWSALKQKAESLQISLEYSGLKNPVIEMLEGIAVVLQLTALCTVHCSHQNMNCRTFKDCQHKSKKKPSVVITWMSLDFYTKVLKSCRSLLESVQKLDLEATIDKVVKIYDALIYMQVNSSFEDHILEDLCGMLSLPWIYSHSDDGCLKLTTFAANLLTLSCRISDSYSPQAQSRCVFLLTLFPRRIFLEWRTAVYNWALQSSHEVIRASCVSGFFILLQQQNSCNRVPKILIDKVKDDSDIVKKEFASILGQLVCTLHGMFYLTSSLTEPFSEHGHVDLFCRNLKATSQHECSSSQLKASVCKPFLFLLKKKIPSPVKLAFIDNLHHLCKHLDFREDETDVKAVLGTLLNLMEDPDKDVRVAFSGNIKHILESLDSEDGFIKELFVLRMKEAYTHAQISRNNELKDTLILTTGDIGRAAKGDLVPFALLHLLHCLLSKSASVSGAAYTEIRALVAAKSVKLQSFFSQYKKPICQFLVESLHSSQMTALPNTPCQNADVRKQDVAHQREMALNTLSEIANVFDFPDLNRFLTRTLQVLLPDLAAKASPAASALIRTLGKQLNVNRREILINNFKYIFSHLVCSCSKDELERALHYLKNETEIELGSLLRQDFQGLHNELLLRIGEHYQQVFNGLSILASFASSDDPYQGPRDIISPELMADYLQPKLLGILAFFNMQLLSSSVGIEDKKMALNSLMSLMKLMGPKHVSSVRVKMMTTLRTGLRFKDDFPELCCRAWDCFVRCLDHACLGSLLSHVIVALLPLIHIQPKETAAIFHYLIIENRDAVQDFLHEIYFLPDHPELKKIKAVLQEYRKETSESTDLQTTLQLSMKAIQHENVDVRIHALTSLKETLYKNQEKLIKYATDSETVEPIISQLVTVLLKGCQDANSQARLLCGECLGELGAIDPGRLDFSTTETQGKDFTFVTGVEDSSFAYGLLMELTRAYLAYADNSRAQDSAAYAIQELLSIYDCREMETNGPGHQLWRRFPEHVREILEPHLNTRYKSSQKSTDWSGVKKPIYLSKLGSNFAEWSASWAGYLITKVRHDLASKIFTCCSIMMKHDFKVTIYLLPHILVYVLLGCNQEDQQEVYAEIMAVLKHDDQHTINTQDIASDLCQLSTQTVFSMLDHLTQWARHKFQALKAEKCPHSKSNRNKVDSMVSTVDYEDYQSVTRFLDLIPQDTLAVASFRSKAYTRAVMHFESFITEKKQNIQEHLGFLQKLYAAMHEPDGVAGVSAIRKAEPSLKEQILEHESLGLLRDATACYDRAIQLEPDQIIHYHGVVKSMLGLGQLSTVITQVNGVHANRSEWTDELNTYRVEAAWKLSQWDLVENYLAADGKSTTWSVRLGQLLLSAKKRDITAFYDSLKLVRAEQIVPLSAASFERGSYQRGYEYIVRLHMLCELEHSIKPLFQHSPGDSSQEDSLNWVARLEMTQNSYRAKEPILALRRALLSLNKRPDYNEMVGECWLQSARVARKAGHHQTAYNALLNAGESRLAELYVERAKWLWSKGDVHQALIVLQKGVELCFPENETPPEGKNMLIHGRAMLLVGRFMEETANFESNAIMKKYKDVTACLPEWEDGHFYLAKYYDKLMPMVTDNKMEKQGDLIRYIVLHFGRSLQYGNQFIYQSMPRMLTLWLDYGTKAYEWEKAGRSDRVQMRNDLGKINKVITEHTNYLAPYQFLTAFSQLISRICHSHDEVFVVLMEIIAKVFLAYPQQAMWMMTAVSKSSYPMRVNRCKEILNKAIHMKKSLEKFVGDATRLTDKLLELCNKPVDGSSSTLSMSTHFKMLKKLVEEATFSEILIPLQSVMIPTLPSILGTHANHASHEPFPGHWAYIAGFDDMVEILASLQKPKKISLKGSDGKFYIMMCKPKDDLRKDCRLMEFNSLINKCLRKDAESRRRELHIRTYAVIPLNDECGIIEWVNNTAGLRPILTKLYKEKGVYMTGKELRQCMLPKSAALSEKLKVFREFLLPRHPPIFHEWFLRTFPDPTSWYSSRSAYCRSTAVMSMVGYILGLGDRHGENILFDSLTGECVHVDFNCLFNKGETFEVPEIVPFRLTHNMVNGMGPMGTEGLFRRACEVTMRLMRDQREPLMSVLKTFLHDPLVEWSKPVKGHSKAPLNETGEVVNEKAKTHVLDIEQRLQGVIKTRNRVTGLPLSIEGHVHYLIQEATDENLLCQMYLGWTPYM
UniProt P15927: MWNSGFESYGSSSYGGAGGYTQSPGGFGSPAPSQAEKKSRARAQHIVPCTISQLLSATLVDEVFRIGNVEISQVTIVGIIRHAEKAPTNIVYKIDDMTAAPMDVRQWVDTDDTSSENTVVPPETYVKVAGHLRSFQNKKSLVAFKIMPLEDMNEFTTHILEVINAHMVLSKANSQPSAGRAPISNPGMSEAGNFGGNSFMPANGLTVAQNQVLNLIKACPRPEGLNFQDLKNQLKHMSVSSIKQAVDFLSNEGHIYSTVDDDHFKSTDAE
UniProt P27694: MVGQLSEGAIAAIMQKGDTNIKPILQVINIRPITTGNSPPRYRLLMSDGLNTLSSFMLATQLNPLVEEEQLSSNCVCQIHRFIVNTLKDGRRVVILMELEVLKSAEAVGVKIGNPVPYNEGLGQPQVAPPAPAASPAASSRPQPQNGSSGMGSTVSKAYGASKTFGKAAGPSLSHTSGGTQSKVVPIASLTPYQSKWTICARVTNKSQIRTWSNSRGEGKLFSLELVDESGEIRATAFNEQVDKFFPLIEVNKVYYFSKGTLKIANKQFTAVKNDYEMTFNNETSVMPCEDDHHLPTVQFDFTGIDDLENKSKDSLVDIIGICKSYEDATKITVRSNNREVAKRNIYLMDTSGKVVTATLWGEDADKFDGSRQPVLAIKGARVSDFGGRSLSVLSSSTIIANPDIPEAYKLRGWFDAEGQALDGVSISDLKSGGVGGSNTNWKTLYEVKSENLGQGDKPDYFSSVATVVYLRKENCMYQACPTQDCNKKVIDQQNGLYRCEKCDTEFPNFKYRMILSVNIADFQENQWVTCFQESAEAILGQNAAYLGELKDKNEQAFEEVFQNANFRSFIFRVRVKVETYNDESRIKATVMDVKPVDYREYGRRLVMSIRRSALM

Experiments:
[1] = target: T1, FLAG-tagged FOXP1 S396D (human) (UniProt Q9H334); test: co-IP; HEK293T transfected with the indicated plasmids, lysed in NETN buffer, Anti-FLAG Affinity Gel 4 h at 4 °C, immunoblot; in some panels 2 mM HU, Thiamet-G, OGT siRNA, ATR inhibitors (VE-822, NU6027) or CHK1 inhibitors (Rabusertib, UCN-01)
T1 sequence: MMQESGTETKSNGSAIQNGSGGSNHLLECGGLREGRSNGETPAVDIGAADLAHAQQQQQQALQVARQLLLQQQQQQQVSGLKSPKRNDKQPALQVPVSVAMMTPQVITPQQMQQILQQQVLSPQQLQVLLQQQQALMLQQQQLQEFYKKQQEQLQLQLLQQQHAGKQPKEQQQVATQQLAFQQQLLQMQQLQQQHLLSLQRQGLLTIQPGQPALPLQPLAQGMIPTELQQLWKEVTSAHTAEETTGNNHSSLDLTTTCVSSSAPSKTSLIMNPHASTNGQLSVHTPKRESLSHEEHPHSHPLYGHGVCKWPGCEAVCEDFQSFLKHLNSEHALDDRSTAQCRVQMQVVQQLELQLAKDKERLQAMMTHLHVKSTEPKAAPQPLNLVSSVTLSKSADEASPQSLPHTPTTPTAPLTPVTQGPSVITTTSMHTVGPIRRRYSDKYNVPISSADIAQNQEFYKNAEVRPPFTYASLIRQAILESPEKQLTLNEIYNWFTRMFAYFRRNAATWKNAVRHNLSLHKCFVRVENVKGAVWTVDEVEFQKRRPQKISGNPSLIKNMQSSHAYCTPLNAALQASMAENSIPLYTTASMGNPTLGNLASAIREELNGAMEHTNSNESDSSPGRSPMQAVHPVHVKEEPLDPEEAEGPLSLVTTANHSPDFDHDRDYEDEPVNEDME

[2] = target: T2, FLAG-tagged FOXP1 (wild type, full length) (human) (UniProt Q9H334); test: as above
T2 sequence: T1 sequence with D396S

[3] = target: T3, FLAG-tagged FOXP1 R465T (human) (UniProt Q9H334); test: as above
T3 sequence: T1 sequence with D396S, R465T

[4] = target: T4, FLAG-tagged FOXP1 R514H (human) (UniProt Q9H334); test: as above
T4 sequence: T1 sequence with D396S, R514H

[5] = target: T5, FLAG-tagged FOXP1 R514C (human) (UniProt Q9H334); test: as above
T5 sequence: T1 sequence with D396S, R514C

[6] = target: T6, FLAG-tagged FOXP1 R465G (human) (UniProt Q9H334); test: as above
T6 sequence: T1 sequence with D396S, R465G

[7] = target: T7, GST-tagged FOXP1 phosphorylated by CHK1 (human) (UniProt Q9H334); test: pull-down; GST pull-down: purified GST-tagged FOXP1 (unmodified, O-GlcNAcylated, or phosphorylated by CHK1 in vitro) incubated with HEK293T cell lysate, glutathione beads, immunoblot; only the target purified
T7 sequence (chain, phosphoserine at 396): T1 sequence with D396S

[8] = target: T8, GST-tagged FOXP1 modified with O-GlcNAc (human) (UniProt Q9H334); test: as above
T8 sequence (chain, O-GlcNAc (sites not stated)): T1 sequence with D396S

[9] = target: T9, GST-tagged FOXP1 (wild type, full length) (human) (UniProt Q9H334); test: as above
T9 sequence: T1 sequence with D396S

[10] = target: T2, FLAG-tagged FOXP1 (wild type, full length) (human); test: co-IP; H1975 cells transfected with FLAG-tagged FOXP1, preincubated with Thiamet-G or not, immunoprecipitation and immunoblot
[11] = target: T2, FLAG-tagged FOXP1 (wild type, full length) (human); test: co-IP; HEK293T transfected with FLAG-FOXP1, untreated or 2 mM HU 1 h, chromatin fractionation; soluble and chromatin fractions (diluted ten times with NETN) precipitated with Anti-FLAG Affinity Gel

Row | binding [1] | binding [2] | binding [3] | binding [4] | binding [5] | binding [6] | binding [7] | binding [8] | binding [9] | binding [10] | binding [11] | Substance
1 | binds | binds | binds | binds | binds | binds | binds | binds | binds | binds | binds | ATR (endogenous) (from UniProt Q13535 1-2644)
2 |  | binds |  |  |  |  |  |  |  |  |  | RPA32 (endogenous) (from UniProt P15927 1-270)
3 |  | binds |  |  |  |  |  |  |  |  |  | RPA70 (endogenous) (from UniProt P27694 1-616)
